In article PMC6430795:
Results are given in words; binding and its absence hold for the method and conditions named. In cells and extracts the contact can be indirect. These calls come from enrichment with a bait or labelling near it, and not all partners need be listed. A no says only that the protein was not detected with the bait.

Target: β-amyloid precursor protein (APP), native (mouse (endogenous in brain))
Experiment: affinity purification with mass spectrometry; multi-epitope affinity purifications with immobilised anti-APP, anti-AJAP-1 and anti-PIANP antibodies from mouse brain membranes solubilised with CL-47 (mild) and CL-91 (intermediate stringency); knock-out brains and IgG as controls

Binder	binding
JIP-3, native (protein, UniProt Q9ESN9 1-1337) MMEIQMDEGGGVVVYQDDYCSGSVMSERVSGLAGSIYREFERLIHCYDEEVVKELMPLVVNVLENLDSVLSENQEHEVELELLREDNEQLLTQYEREKALRKQAEEKFIEFEDALEQEKKELQIQVEHYEFQTRQLELKAKNYADQISRLEERESEMKKEYNALHQRHTEMIQTYVEHIERSKMQQVGGSGQTESSLPGRSRKERPTSLNVFPLADGMVRAQMGGKLVPAGDHWHLSDLGQLQSSSSYQCPNDEMSESGQSSAAATPSTTGTKSNTPTSSVPSAAVTPLNESLQPLGDYVSVTKNNKQAREKRNSRNMEVQVTQEMRNVSIGMGSSDEWSDVQDIIDSTPELDVCPETRLERTGSSPTQGIVNKAFGINTDSLYHELSTAGSEVIGDVDEGADLLGEFSVRDDFFGMGKEVGNLLLENSQLLETKNALNVVKNDLIAKVDQLSGEQEVLKGELEAAKQAKVKLENRIKELEEELKRVKSEAVTARREPREEVEDVSSYLCTELDKIPMAQRRRFTRVEMARVLMERNQYKERLMELQEAVRWTEMIRASREHPSVQEKKKSTIWQFFSRLFSSSSSPPPAKRSYPSVNIHYKSPTAAGFSQRRSHALCQISAGSRPLEFFPDDDCTSSARREQKREQYRQVREHVRNDDGRLQACGWSLPAKYKQLSPNGGQEDTRMKNVPVPVYCRPLVEKDPSTKLWCAAGVNLSGWKPHEEDSSNGPKPVPGRDPLTCDREGEGEPKSTHPSPEKKKAKETPEADATSSRVWILTSTLTTSKVVIIDANQPGTIVDQFTVCNAHVLCISSIPAASDSDYPPGEMFLDSDVNPEDSGADGVLAGITLVGCATRCNVPRSNCSSRGDTPVLDKGQGDVATTANGKVNPSQSTEEATEATEVPDPGPSESEATTVRPGPLTEHVFTDPAPTPSSSTQPASENGSESNGTIVQPQVEPSGELSTTTSSAAPTMWLGAQNGWLYVHSAVANWKKCLHSIKLKDSVLSLVHVKGRVLVALADGTLAIFHRGEDGQWDLSNYHLMDLGHPHHSIRCMAVVNDRVWCGYKNKVHVIQPKTMQIEKSFDAHPRRESQVRQLAWIGDGVWVSIRLDSTLRLYHAHTHQHLQDVDIEPYVSKMLGTGKLGFSFVRITALLIAGNRLWVGTGNGVVISIPLTETVVLHRGQLLGLRANKTSPTSGEGTRPGGIIHVYGDDSSDKAASSFIPYCSMAQAQLCFHGHRDAVKFFVSVPGNVLATLNGSVLDSPSEGPGPAAPAADAEGQKLKNALVLSGGEGYIDFRIGDGEDDETEECAGDVNQTKPSLSKAERSHIIVWQVSYTPE	no binding
NSG2, native (protein, UniProt P47759 1-171) MVKLNSNPGEKGAKPPSVEDGFQTVPLITPLEVNHLQLAAPEKVIVKTRTEYQPEQRNKGKFRVPKIAEFTVTILVSLALAFLACIVFLVVYKAFTYDHSCPEGFVYKHKRCIPASLDAYYSSQDPSSRSRFYTVISHYSVAKQSTARAIGPWLSAAAVIHEPKPPKTQGH	binds
JIP-1, native (protein, UniProt Q9WVI9 1-707) MAERESGLGGGAASPPAASPFLGLHIASPPNFRLTHDISLEEFEDEDLSEITDECGISLQCKDTLSLRPPRAGLLSAGSSGSAGSRLQAEMLQMDLIDAAGDTPGAEDDEEEEDDELAAQRPGVGPPKAESNQDPAPRSQGQGPGTGSGDTYRPKRPTTLNLFPQVPRSQDTLNNNSLGKKHSWQDRVSRSSSPLKTGEQTPPHEHICLSDELPPQGSPVPTQDRGTSTDSPCRRSAATQMAPPSGPPATAPGGRGHSHRDRIHYQADVRLEATEEIYLTPVQRPPDPAEPTSTFMPPTESRMSVSSDPDPAAYSVTAGRPHPSISEEDEGFDCLSSPERAEPPGGGWRGSLGEPPPPPRASLSSDTSALSYDSVKYTLVVDEHAQLELVSLRPCFGDYSDESDSATVYDNCASASSPYESAIGEEYEEAPQPRPPTCLSEDSTPDEPDVHFSKKFLNVFMSGRSRSSSAESFGLFSCVINGEEHEQTHRAIFRFVPRHEDELELEVDDPLLVELQAEDYWYEAYNMRTGARGVFPAYYAIEVTKEPEHMAALAKNSDWIDQFRVKFLGSVQVPYHKGNDVLCAAMQKIATTRRLTVHFNPPSSCVLEISVRGVKIGVKADDALEAKGNKCSHFFQLKNISFCGYHPKNNKYFGFITKHPADHRFACHVFVSEDSTKALAESVGRAFQQFYKQFVEYTCPTEDIYLE	no binding
ITM2C, native (protein, UniProt Q91VK4 1-269) MVKISFQPAVAGIKADKADKAAASGPASASAPAAEILLTPAREERPPRHRSRKGGSVGGVCYLSMGMVVLLMGLVFASVYIYRYFFLAQLARDNFFHCGVLYEDSLSSQIRTRLELEEDVKIYLEENYERINVPVPQFGGGDPADIIHDFQRGLTAYHDISLDKCYVIELNTTIVLPPRNFWELLMNVKRGTYLPQTYIIQEEMVVTEHVRDKEALGSFIYHLCNGKDTYRLRRRSTRRRINKRGGKNCNAIRHFENTFVVETLICGVV	binds

Second part, the binder after the results:

binding	Binder
binds	calsyntenin-2 (CSTN-2), native (protein, UniProt Q9ER65 21-966) GGSGDGGDSRRRRLLVAKVNKHKPWIETSYHGVITENNDTVILDPPLVALDKDAPVPFAGEICAFKIHGQELPFEAVVLNKTSGEGRLRAKSPIDCELQKEYTFIIQAYDCGAGPREAAWKKSHKAVVHIQVKDVNEFAPTFKEPAYKAIVTEGKIYDSILQVEAIDEDCSPQYSQICNYEIVTTDVPFAIDRNGNIRNTEKLSYDKQHQYEILVTAYDCGQKPAAQDTLVQVDVKPVCKPGWQDWTKRIEYQPGSGSMPLFPSIHLETCDGAVSSLQVTAELQTNYIGKGCDRETYSEKSLQKLCGASSGIIDLLPSPSAATNWTAGLLVDSSEMIFKFDGRQGAKIPDGIVPKNLTDQFTITMWMKHGPSPGVRAEKETILCNSDKTEMNRHHYALYVHNCRLVFLLRKDFDQADTFRPAEFHWKLDQICDKEWHYYVINVEFPVVTLYMDGATYEPYLVTNDWPIHPSHIAMQLTVGACWQGGEVAKPRFAQFFHGSLASLTIRPGKMESQKVISCLQACKEGLDINSLESLGRGIKYHFNPSQSILVMEGDDIGNINRALQKVSYINSRQFPTAGVRRLRLSSKVQCFGEDVCISIPDVDAYIMVLQAIEPQITLQGTERFWRPAAQFESARGVTLFPDIKIVSTFAKTEASGDMRATGTAPKSAVLEEMLHNLDFCDILVLGGDLDPRQECLELNHSELHQRHLDATNSTAGYSIYGVGSMNRYEQVLHHLRYRNWHPTSLETRRFRIKCSELNGRYTSNEFNLEVSVLHEVRVSDKEHVNHLIVQPPFLQSVHHPETRSSIQRSSVVPSIATVVIIISVCMLVFVVAMGVYRVRIAHQHFIQETEAAKEAEMDWDDSALTITVNPMEKHEGPGNGEDETTEVEEEEEAEEGSSSSSSGSDDSEEEEEEGMGRVRHGQSGTSSQSPERSTWNTAGVINIWK
binds	calsyntenin-1 (CSTN-1), native (protein, UniProt Q9EPL2 29-979) ARVNKHKPWLEPTYHGIVTENDNTVLLDPPLIALDKDSPLRFAESFEVTVTKEGEICGFKIHGQNVPFDAVVVDKSTGEGIIRSKEKLDCELQKDYTFTIQAYDCGKGPDGTGVKKSHKATVHIQVNDVNEYAPVFKEKSYKAAVVEGKQHSSILRVEAVDADCSPQFSQICSYEILTPDVPFTVDKDGYIKNTEKLNYGKEHQYKLTVTAYDCGKKRATEDVLVKISVKPTCSPGWQGWSSRIEYEPGTGALAVFPSIHLETCDEPVASVQATVELETSHIGKGCDRDTYSEKSLHRLCGAAAGTSELLPSPSSSFNWTVGLPTDNGHDSDQVFEFNGTQAVRIPDGVVTLDPKEPFTISVWMRHGPFGRKKETILCSSDKTDMNRHHYSLYVHGCRLVFLLRQDPSEEKKYRPAEFHWKLNQVCDEDWHHFVLNVEVPSVTLYVDGIPHEPFSVTEDYPLHPTKIETQLVVGACWQEYSGVESGNETEPATMASAGGDLHMTQFFRGNLAGLTVRSGKLADKKVIDCLYTCKEGLDLQVPEDANRGVQIQASSSQAVLTLEGDNVGELDKAMQHISYLNSRQFPTPGIRRLKITSTVKCFNEAACIEVPPVEGYVMVLQPEEPKISLSGVHHFARAASEFESAEGISLFPELRIISTITREVEPEADGSEDPTVQESLVSEEIVHDLDTCEVTVEGDELNAEQESLEVDVTRLQQKGIEASHSDLGVVFTGVETMASYEEVLHLLRYRNWHTRSLLDRKFKLICSELNGRYLSNEFKVEVNVIHTANPVEHANHMAAQPQFVHPEHRSFVDLSGHNLANPHPFAVVPSTATVVIVVCVSFLVFMIILGVFRIRAAHQRTMRDQDTGKENEMDWDDSALTITVNPMETYEDQHSSEEEEEEEEEEESEDGEEEEDITSAESESSEEEEGGPGDGQNATRQLEWDDSTLSY
binds	calsyntenin-3 (CSTN-3), native (protein, UniProt Q99JH7 20-956) NKANKHKPWIEAEYQGIVMENDNTVLLNPPLFALDKDAPLRYAGEICGFRLHGSGVPFEAVILDKATGEGLIRAKEPVDCEAQKEHTFTIQAYDCGEGPDGTNTKKSHKATVHVRVNDVNEFAPVFVERLYRAAVTEGKLYDRILRVEAIDGDCSPQYSQICYYEILTPNTPFLIDNDGNIENTEKLQYSGEKLYKFTVTAYDCGKKRAADDAEVEIQVKPTCKPSWQGWNKRIEYAPGAGSLALFPGIRLETCDEPLWNIQATIELQTSHVAKGCDRDNYSERALRKLCGAATGEVDLLPMPGPNANWTAGLSVHYSQDSSLIYWFNGTQAVQVPLGGPAGLGSGPQDGFSDHFTLSFWMKHSVTPSKGKKEEETIVCNTVQNEDGYSHYSLTVHGCRIAFLYWPLLESARPVKFLWKLEQVCDDEWHHYALNLEFPTVTLYTDGISFDPALIHDNGLIHPPRREPALMIGACWTEEKNKEKKGGENSTDTASGDPLLIHHYFHGYLAGFSVRSGRLESREVIECLYACREGLDYRDFESLGKGMKVHVNPSQSLLTLEGDDVETFNHALQHVAYMNTLRFATPGVRPLRLTTAVKCFSEESCVSIPEVEGYVVVLQPDAPQILLSGTAHFARPAVDFEGPEGVPLFPDLQITCSISHQVEAKADESWQGTVTDTRMSDEIVHNLDGCEISLVGDDLDPERESLLLDMASLQQRGLELTNTSAYLTIAGVETITVYEEILRQARYQLRHGAALYARKFRLSCSEMNGRYSSNEFIVEVNVLHSMNRVAHPSHVLSSQQFLHRGHQPPPEMAGHSLASSHRNSMVPSAATLIIVVCVGFLVLMVILGLVRIHSLHRRVSGTGGPSGASTDPKDPDLFWDDSALTIIVNPMESYQNQQTCVAGVAGGQQEEEDSSDSEAADSPSSDERRIIESPPHRY
